# According to the supplement of paper PMC8728848:
# The list shows a part of the results.
# Key:
# Assay in all cases: glycan array binding signal (z-score within array); higher = stronger binding
# Conditions in all cases: glycan notation: IUPAC condensed, linker removed
# [1] = molecular target: Neu5Ac(a2-3)Gal(b1-3)[Neu5Ac(a2-6)]GlcNAc(b1-3)[Fuc(a1-3)[Gal(b1-4)]GlcNAc(b1-6)]Gal(b1-4)Glc
# Outline: (§1)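 Glycan array data were curated from 3228 arrays in the Consortium for Functional Glycomics database and kept only where the protein sequence was available. Glycan names were converted to IUPAC-condensed notation, and columns mapping to the same glycan were averaged. The binding signal is a within-array Z-score, averaged across arrays of the same protein sequence at different concentrations or buffers and across linkers. Negative Z-scores can be read as non-binding.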
# Neu5Ac(a2-3)Gal(b1-4)Glc = molecular target: Neu5Ac(a2-3)Gal(b1-4)Glc
# Outline: as §1
# [2] = molecular target: Neu5Ac(a2-3)Gal(b1-4)GlcNAc
# Outline: as §1
# [3] = molecular target: Neu5Ac(a2-3)Gal(b1-4)GlcNAc(b1-2)Man
# Outline: as §1
# [4] = molecular target: Neu5Ac(a2-3)Gal(b1-4)GlcNAc(b1-2)Man(a1-3)[GlcNAc(b1-2)Man(b1-4)GlcNAc(b1-2)Man(a1-6)]Man(b1-4)GlcNAc(b1-4)GlcNAc
# Outline: as §1
# [5] = molecular target: Neu5Ac(a2-3)Gal(b1-4)GlcNAc(b1-2)Man(a1-3)[Neu5Ac(a2-3)Gal(b1-4)GlcNAc(b1-2)Man(a1-6)]Man(b1-4)GlcNAc(b1-4)[Fuc(a1-6)]GlcNAc
# Outline: as §1
# [6] = molecular target: Neu5Ac(a2-3)Gal(b1-4)GlcNAc(b1-2)Man(a1-3)[Neu5Ac(a2-6)Gal(b1-4)GlcNAc(b1-2)Man(a1-6)]Man(b1-4)GlcNAc(b1-4)GlcNAc
# Outline: as §1
# [7] = molecular target: Neu5Ac(a2-3)Gal(b1-4)GlcNAc(b1-2)[Neu5Ac(a2-3)Gal(b1-4)GlcNAc(b1-6)]Man(a1-6)[Neu5Ac(a2-3)Gal(b1-4)GlcNAc(b1-2)Man(a1-3)]Man(b1-4)GlcNAc(b1-4)GlcNAc
# Outline: as §1
# [8] = molecular target: Neu5Ac(a2-3)Gal(b1-4)GlcNAc(b1-3)Gal
# Outline: as §1
# [9] = molecular target: Neu5Ac(a2-3)Gal(b1-4)GlcNAc(b1-3)Gal(b1-3)GlcNAc
# Outline: as §1
# [10] = molecular target: Neu5Ac(a2-3)Gal(b1-4)GlcNAc(b1-3)Gal(b1-4)GlcNAc
# Outline: as §1
# [11] = molecular target: Neu5Ac(a2-3)Gal(b1-4)GlcNAc(b1-3)Gal(b1-4)GlcNAc(b1-3)Gal(b1-4)GlcNAc
# Outline: as §1
# [12] = molecular target: Neu5Ac(a2-3)Gal(b1-4)GlcNAc(b1-3)Gal(b1-4)[Fuc(a1-3)]GlcNAc
# Outline: as §1
# [13] = molecular target: Neu5Ac(a2-3)Gal(b1-4)GlcNAc(b1-3)GalNAc
# Outline: as §1
# [14] = molecular target: Neu5Ac(a2-3)Gal(b1-4)GlcNAc(b1-3)[Neu5Ac(a2-3)Gal(b1-4)GlcNAc(b1-6)]GalNAc
# Outline: as §1
# [15] = molecular target: Neu5Ac(a2-3)Gal(b1-4)GlcNAc(b1-6)GalNAc
# Outline: as §1
# [16] = molecular target: Neu5Ac(a2-3)Gal(b1-4)GlcNAc(b1-6)[Gal(b1-3)]GalNAc
# Outline: as §1
# [17] = molecular target: Neu5Ac(a2-3)Gal(b1-4)GlcNAc(b1-6)[Neu5Ac(a2-3)Gal(b1-3)]GalNAc
# Outline: as §1
# [18] = molecular target: Neu5Ac(a2-3)Gal(b1-4)GlcNAc6S
# Outline: as §1
# [19] = molecular target: Neu5Ac(a2-3)Gal(b1-4)[Fuc(a1-3)]GlcNAc
# Outline: as §1
# [20] = molecular target: Neu5Ac(a2-3)Gal(b1-4)[Fuc(a1-3)]GlcNAc(b1-3)Gal
# Outline: as §1
# [21] = molecular target: Neu5Ac(a2-3)Gal(b1-4)[Fuc(a1-3)]GlcNAc(b1-3)Gal(b1-4)GlcNAc
# Outline: as §1
# [22] = molecular target: Neu5Ac(a2-3)Gal(b1-4)[Fuc(a1-3)]GlcNAc(b1-3)Gal(b1-4)[Fuc(a1-3)]GlcNAc(b1-3)Gal(b1-4)[Fuc(a1-3)]GlcNAc
# Outline: as §1
# [23] = molecular target: Neu5Ac(a2-3)Gal(b1-4)[Fuc(a1-3)]GlcNAc(b1-3)GalNAc
# Outline: as §1
# [24] = molecular target: Neu5Ac(a2-3)Gal(b1-4)[Fuc(a1-3)]GlcNAc(b1-6)[Gal(b1-3)]GalNAc
# Outline: as §1
# [25] = molecular target: Neu5Ac(a2-3)Gal(b1-4)[Fuc(a1-3)]GlcNAc6S
# Outline: as §1
# [26] = molecular target: Neu5Ac(a2-3)Gal6S(b1-4)GlcNAc
# Outline: as §1
# [27] = molecular target: Neu5Ac(a2-3)Gal6S(b1-4)[Fuc(a1-3)]GlcNAc
# Outline: as §1
# Neu5Ac(a2-3)GalNAc = molecular target: Neu5Ac(a2-3)GalNAc
# Outline: as §1
# [28] = molecular target: Neu5Ac(a2-3)GalNAc(b1-4)GlcNAc
# Outline: as §1
# [29] = molecular target: Neu5Ac(a2-3)[GalNAc(b1-4)]Gal(b1-4)Glc
# Outline: as §1
# [30] = molecular target: Neu5Ac(a2-3)[GalNAc(b1-4)]Gal(b1-4)GlcNAc
# Outline: as §1
# [31] = molecular target: Neu5Ac(a2-3)[GalNAc(b1-4)]Gal(b1-4)GlcNAc(b1-3)GalNAc
# Outline: as §1
# [32] = molecular target: Neu5Ac(a2-3)[Neu5Ac(a2-6)]GalNAc
# Outline: as §1
# Neu5Ac(a2-6)Gal = molecular target: Neu5Ac(a2-6)Gal
# Outline: as §1
# [33] = molecular target: Neu5Ac(a2-6)Gal(b1-3)GlcNAc(b1-3)[Gal(b1-4)GlcNAc(b1-6)]Gal(b1-4)Glc
# Outline: as §1
# Neu5Ac(a2-6)Gal(b1-4)Glc = molecular target: Neu5Ac(a2-6)Gal(b1-4)Glc
# Outline: as §1
# [34] = molecular target: Neu5Ac(a2-6)Gal(b1-4)GlcNAc
# Outline: as §1
# [35] = molecular target: Neu5Ac(a2-6)Gal(b1-4)GlcNAc(b1-2)Man(a1-3)Man(b1-4)GlcNAc(b1-4)GlcNAc
# Outline: as §1
# [36] = molecular target: Neu5Ac(a2-6)Gal(b1-4)GlcNAc(b1-2)Man(a1-3)[Gal(b1-4)GlcNAc(b1-2)Man(a1-6)]Man(b1-4)GlcNAc(b1-4)GlcNAc
# Outline: as §1
# [37] = molecular target: Neu5Ac(a2-6)Gal(b1-4)GlcNAc(b1-2)Man(a1-3)[GlcNAc(b1-2)Man(a1-6)]Man(b1-4)GlcNAc(b1-4)GlcNAc
# Outline: as §1
# [38] = molecular target: Neu5Ac(a2-6)Gal(b1-4)GlcNAc(b1-2)Man(a1-3)[GlcNAc(b1-2)Man(b1-4)GlcNAc(b1-2)Man(a1-6)]Man(b1-4)GlcNAc(b1-4)GlcNAc
# Outline: as §1
binder,measurement,setting,value
"Latrophilin-3 (Homo sapiens), Q9HAR2 (protein) MWPSQLLIFMMLLAPIIHAFSRAPIPMAVVRRELSCESYPIELRCPGTDVIMIESANYGRTDDKICDSDPAQMENIRCYLPDAYKIMSQRCNNRTQCAVVAGPDVFPDPCPGTYKYLEVQYECVPYKVEQKVFLCPGLLKGVYQSEHLFESDHQSGAWCKDPLQASDKIYYMPWTPYRTDTLTEYSSKDDFIAGRPTTTYKLPHRVDGTGFVVYDGALFFNKERTRNIVKFDLRTRIKSGEAIIANANYHDTSPYRWGGKSDIDLAVDENGLWVIYATEQNNGKIVISQLNPYTLRIEGTWDTAYDKRSASNAFMICGILYVVKSVYEDDDNEATGNKIDYIYNTDQSKDSLVDVPFPNSYQYIAAVDYNPRDNLLYVWNNYHVVKYSLDFGPLDSRSGQAHHGQVSYISPPIHLDSELERPSVKDISTTGPLGMGSTTTSTTLRTTTLSPGRSTTPSVSGRRNRSTSTPSPAVEVLDDMTTHLPSASSQIPALEESCEAVEAREIMWFKTRQGQIAKQPCPAGTIGVSTYLCLAPDGIWDPQGPDLSNCSSPWVNHITQKLKSGETAANIARELAEQTRNHLNAGDITYSVRAMDQLVGLLDVQLRNLTPGGKDSAARSLNKAMVETVNNLLQPQALNAWRDLTTSDQLRAATMLLHTVEESAFVLADNLLKTDIVRENTDNIKLEVARLSTEGNLEDLKFPENMGHGSTIQLSANTLKQNGRNGEIRVAFVLYNNLGPYLSTENASMKLGTEALSTNHSVIVNSPVITAAINKEFSNKVYLADPVVFTVKHIKQSEENFNPNCSFWSYSKRTMTGYWSTQGCRLLTTNKTHTTCSCNHLTNFAVLMAHVEVKHSDAVHDLLLDVITWVGILLSLVCLLICIFTFCFFRGLQSDRNTIHKNLCISLFVAELLFLIGINRTDQPIACAVFAALLHFFFLAAFTWMFLEGVQLYIMLVEVFESEHSRRKYFYLVGYGMPALIVAVSAAVDYRSYGTDKVCWLRLDTYFIWSFIGPATLIIMLNVIFLGIALYKMFHHTAILKPESGCLDNIKSWVIGAIALLCLLGLTWAFGLMYINESTVIMAYLFTIFNSLQGMFIFIFHCVLQKKVRKEYGKCLRTHCCSGKSTESSIGSGKTSGSRTPGRYSTGSQSRIRRMWNDTVRKQSESSFITGDINSSASLNREGLLNNARDTSVMDTLPLNGNHGNSYSIASGEYLSNCVQIIDRGYNHNETALEKKILKELTSNYIPSYLNNHERSSEQNRNLMNKLVNNLGSGREDDAIVLDDATSFNHEESLGLELIHEESDAPLLPPRVYSTENHQPHHYTRRRIPQDHSESFFPLLTNEHTEDLQSPHRDSLYTSMPTLAGVAATESVTTSTQTEPPPAKCGDAEDVYYKSMPNLGSRNHVHQLHTYYQLGRGSSDGFIVPPNKDGTPPEGSSKGPAHLVTSL",glycan array binding signal (z-score),[1],-0.442
same,glycan array binding signal (z-score),Neu5Ac(a2-3)Gal(b1-4)Glc,-0.511
same,glycan array binding signal (z-score),[2],0.302
same,glycan array binding signal (z-score),[3],-0.747
same,glycan array binding signal (z-score),[4],0.035
same,glycan array binding signal (z-score),[5],0.562
same,glycan array binding signal (z-score),[6],-0.287
same,glycan array binding signal (z-score),[7],0.262
same,glycan array binding signal (z-score),[8],-1.21
same,glycan array binding signal (z-score),[9],0.415
same,glycan array binding signal (z-score),[10],-0.549
same,glycan array binding signal (z-score),[11],-1.1
same,glycan array binding signal (z-score),[12],0.751
same,glycan array binding signal (z-score),[13],0.708
same,glycan array binding signal (z-score),[14],1.37
same,glycan array binding signal (z-score),[15],-0.85
same,glycan array binding signal (z-score),[16],-0.293
same,glycan array binding signal (z-score),[17],-0.146
same,glycan array binding signal (z-score),[18],-0.064
same,glycan array binding signal (z-score),[19],-0.152
same,glycan array binding signal (z-score),[20],1.17
same,glycan array binding signal (z-score),[21],0.683
same,glycan array binding signal (z-score),[22],0.41
same,glycan array binding signal (z-score),[23],3.18
same,glycan array binding signal (z-score),[24],2.03
same,glycan array binding signal (z-score),[25],0.396
same,glycan array binding signal (z-score),[26],0.048
same,glycan array binding signal (z-score),[27],-0.975
same,glycan array binding signal (z-score),Neu5Ac(a2-3)GalNAc,-1.32
same,glycan array binding signal (z-score),[28],-0.972
same,glycan array binding signal (z-score),[29],0.355
same,glycan array binding signal (z-score),[30],-0.406
same,glycan array binding signal (z-score),[31],-0.886
same,glycan array binding signal (z-score),[32],-1.4
same,glycan array binding signal (z-score),Neu5Ac(a2-6)Gal,-0.216
same,glycan array binding signal (z-score),[33],-0.989
same,glycan array binding signal (z-score),Neu5Ac(a2-6)Gal(b1-4)Glc,1.15
same,glycan array binding signal (z-score),[34],-0.124
same,glycan array binding signal (z-score),[35],-0.74
same,glycan array binding signal (z-score),[36],-1.06
same,glycan array binding signal (z-score),[37],-1.62
same,glycan array binding signal (z-score),[38],-0.156
